# Experimental data as given in the supplement of paper PMC10382679.
# Single values of this set are uncertain.
# B1: Rpb7; numbered along this chain (parent)
# chain: MFFIKDLSLNITLHPSFFGPRMKQYLKTKLLEEVEGSCTGKFGYILCVLDYDNIDIQRGRILPTDGSAEFNVKYRAVVFKPFKGEVVDGTVVSCSQHGFEVQVGPMKVFVTKHLMPQDLTFNAGSNPPSYQSSEDVITIKSRIRVKIEGCISQVSSIHAIGSIKEDYLGAI
# Columns and labels:
# [1] = variants of: B1; experiment: log2 fold change of mutant abundance, UV-irradiated vs unirradiated; higher = more UV resistant (enriched after UV); conditions: with Saccharomyces cerevisiae rad7Δ rad26Δ; UV dose (J/m2): 10; genetic background: rad7Δ rad26Δ rpb7Δ + plasmid RPB7 library; outgrowth: 10 cell divisions
# [2] = variants of: B1; experiment: NOISeq theta enrichment statistic, UV-irradiated vs unirradiated (dimensionless); higher = more UV resistant (enriched after UV); conditions: with Saccharomyces cerevisiae rad7Δ rad26Δ; UV dose (J/m2): 10; genetic background: rad7Δ rad26Δ rpb7Δ + plasmid RPB7 library; outgrowth: 10 cell divisions
variant,measurement,setting,value
P128A,log2 fold change of mutant abundance,[1],0.0584
same,NOISeq theta enrichment statistic,[2],0.0984
P128Q,log2 fold change of mutant abundance,[1],0.117
same,NOISeq theta enrichment statistic,[2],0.502
P128T,log2 fold change of mutant abundance,[1],-0.118
same,NOISeq theta enrichment statistic,[2],-0.336
P128L,log2 fold change of mutant abundance,[1],-0.017
same,NOISeq theta enrichment statistic,[2],-0.047
P128E,log2 fold change of mutant abundance,[1],-0.269
same,NOISeq theta enrichment statistic,[2],-0.18
P128H,log2 fold change of mutant abundance,[1],-0.217
same,NOISeq theta enrichment statistic,[2],-0.191
S141H,log2 fold change of mutant abundance,[1],1.93
same,NOISeq theta enrichment statistic,[2],0.727
S141C,log2 fold change of mutant abundance,[1],-0.00608
same,NOISeq theta enrichment statistic,[2],-0.0237
S141D,log2 fold change of mutant abundance,[1],0.33
same,NOISeq theta enrichment statistic,[2],0.299
S141I,log2 fold change of mutant abundance,[1],0.163
same,NOISeq theta enrichment statistic,[2],0.193
S141G,log2 fold change of mutant abundance,[1],0.032
same,NOISeq theta enrichment statistic,[2],0.0743
I137M,log2 fold change of mutant abundance,[1],0.135
same,NOISeq theta enrichment statistic,[2],0.139
I137L,log2 fold change of mutant abundance,[1],0.264
same,NOISeq theta enrichment statistic,[2],0.354
I137N,log2 fold change of mutant abundance,[1],-0.168
same,NOISeq theta enrichment statistic,[2],-0.3
I137F,log2 fold change of mutant abundance,[1],-0.121
same,NOISeq theta enrichment statistic,[2],-0.361
I137K,log2 fold change of mutant abundance,[1],0.844
same,NOISeq theta enrichment statistic,[2],0.472
I137D,log2 fold change of mutant abundance,[1],0.053
same,NOISeq theta enrichment statistic,[2],0.0306
I137Y,log2 fold change of mutant abundance,[1],-0.131
same,NOISeq theta enrichment statistic,[2],-0.0971
I137H,log2 fold change of mutant abundance,[1],-0.028
same,NOISeq theta enrichment statistic,[2],-0.0232
I137A,log2 fold change of mutant abundance,[1],-0.245
same,NOISeq theta enrichment statistic,[2],-0.0959
I137T,log2 fold change of mutant abundance,[1],0.00252
same,NOISeq theta enrichment statistic,[2],0.00397
I137S,log2 fold change of mutant abundance,[1],0.0702
same,NOISeq theta enrichment statistic,[2],0.102
I137V,log2 fold change of mutant abundance,[1],-0.141
same,NOISeq theta enrichment statistic,[2],-0.463
A123E,log2 fold change of mutant abundance,[1],0.126
same,NOISeq theta enrichment statistic,[2],0.878
A123G,log2 fold change of mutant abundance,[1],-0.07
same,NOISeq theta enrichment statistic,[2],-0.118
A123R,log2 fold change of mutant abundance,[1],-0.121
same,NOISeq theta enrichment statistic,[2],-0.0781
A123T,log2 fold change of mutant abundance,[1],-0.00286
same,NOISeq theta enrichment statistic,[2],-0.00834
A123S,log2 fold change of mutant abundance,[1],0.0688
same,NOISeq theta enrichment statistic,[2],0.215
A123D,log2 fold change of mutant abundance,[1],0.0996
same,NOISeq theta enrichment statistic,[2],0.0993
A123P,log2 fold change of mutant abundance,[1],-0.0275
same,NOISeq theta enrichment statistic,[2],-0.0411
A123K,log2 fold change of mutant abundance,[1],0.0667
same,NOISeq theta enrichment statistic,[2],0.0502
A123W,log2 fold change of mutant abundance,[1],-0.0975
same,NOISeq theta enrichment statistic,[2],-0.0647
A123C,log2 fold change of mutant abundance,[1],0.213
same,NOISeq theta enrichment statistic,[2],0.185
A123Q,log2 fold change of mutant abundance,[1],0.353
same,NOISeq theta enrichment statistic,[2],0.173
A123V,log2 fold change of mutant abundance,[1],-0.196
same,NOISeq theta enrichment statistic,[2],-0.573
I139L,log2 fold change of mutant abundance,[1],0.0932
same,NOISeq theta enrichment statistic,[2],0.38
I139T,log2 fold change of mutant abundance,[1],0.017
same,NOISeq theta enrichment statistic,[2],0.0485
I139N,log2 fold change of mutant abundance,[1],-0.433
same,NOISeq theta enrichment statistic,[2],-0.287
I139H,log2 fold change of mutant abundance,[1],0.0485
same,NOISeq theta enrichment statistic,[2],0.0366
I139V,log2 fold change of mutant abundance,[1],0.0155
same,NOISeq theta enrichment statistic,[2],0.0747
I139Q,log2 fold change of mutant abundance,[1],-0.0107
same,NOISeq theta enrichment statistic,[2],-0.00954
I139R,log2 fold change of mutant abundance,[1],-0.0609
same,NOISeq theta enrichment statistic,[2],-0.0877
I139F,log2 fold change of mutant abundance,[1],1.02
same,NOISeq theta enrichment statistic,[2],0.59
I139M,log2 fold change of mutant abundance,[1],-0.0411
same,NOISeq theta enrichment statistic,[2],-0.1
I139S,log2 fold change of mutant abundance,[1],1.1
same,NOISeq theta enrichment statistic,[2],0.52
I139E,log2 fold change of mutant abundance,[1],-0.572
same,NOISeq theta enrichment statistic,[2],-0.296
I139K,log2 fold change of mutant abundance,[1],-0.203
same,NOISeq theta enrichment statistic,[2],-0.739
Q131L,log2 fold change of mutant abundance,[1],-0.322
same,NOISeq theta enrichment statistic,[2],-1.01
Q131P,log2 fold change of mutant abundance,[1],0.0693
same,NOISeq theta enrichment statistic,[2],0.14
Q131E,log2 fold change of mutant abundance,[1],0.241
same,NOISeq theta enrichment statistic,[2],0.375
Q131H,log2 fold change of mutant abundance,[1],0.0359
same,NOISeq theta enrichment statistic,[2],0.163
Q131T,log2 fold change of mutant abundance,[1],-0.869
same,NOISeq theta enrichment statistic,[2],-0.603
Q131I,log2 fold change of mutant abundance,[1],-0.959
same,NOISeq theta enrichment statistic,[2],-0.428
Q131N,log2 fold change of mutant abundance,[1],0.639
same,NOISeq theta enrichment statistic,[2],0.32
Q131Y,log2 fold change of mutant abundance,[1],0.262
same,NOISeq theta enrichment statistic,[2],0.113
Q131K,log2 fold change of mutant abundance,[1],0.469
same,NOISeq theta enrichment statistic,[2],1.53
Q131R,log2 fold change of mutant abundance,[1],0.278
same,NOISeq theta enrichment statistic,[2],1.02
D135K,log2 fold change of mutant abundance,[1],0.289
same,NOISeq theta enrichment statistic,[2],0.199
D135R,log2 fold change of mutant abundance,[1],-0.401
same,NOISeq theta enrichment statistic,[2],-0.268
D135N,log2 fold change of mutant abundance,[1],-0.225
same,NOISeq theta enrichment statistic,[2],-0.543
D135A,log2 fold change of mutant abundance,[1],-0.148
same,NOISeq theta enrichment statistic,[2],-0.179
D135V,log2 fold change of mutant abundance,[1],-0.393
same,NOISeq theta enrichment statistic,[2],-1.13
D135E,log2 fold change of mutant abundance,[1],-0.0208
same,NOISeq theta enrichment statistic,[2],-0.121
D135I,log2 fold change of mutant abundance,[1],-1
same,NOISeq theta enrichment statistic,[2],-0.525
D135S,log2 fold change of mutant abundance,[1],-0.183
same,NOISeq theta enrichment statistic,[2],-0.14
D135M,log2 fold change of mutant abundance,[1],-1.09
same,NOISeq theta enrichment statistic,[2],-0.525
D135Y,log2 fold change of mutant abundance,[1],-0.205
same,NOISeq theta enrichment statistic,[2],-0.476
D135G,log2 fold change of mutant abundance,[1],-0.412
same,NOISeq theta enrichment statistic,[2],-1.01
D135H,log2 fold change of mutant abundance,[1],-0.271
same,NOISeq theta enrichment statistic,[2],-0.328
N126C,log2 fold change of mutant abundance,[1],-0.574
same,NOISeq theta enrichment statistic,[2],-0.302
N126A,log2 fold change of mutant abundance,[1],0.035
same,NOISeq theta enrichment statistic,[2],0.0178
N126K,log2 fold change of mutant abundance,[1],0.117
same,NOISeq theta enrichment statistic,[2],0.346
N126E,log2 fold change of mutant abundance,[1],0.254
same,NOISeq theta enrichment statistic,[2],0.188
N126Q,log2 fold change of mutant abundance,[1],-0.0586
same,NOISeq theta enrichment statistic,[2],-0.0522
N126H,log2 fold change of mutant abundance,[1],-0.097
same,NOISeq theta enrichment statistic,[2],-0.185
N126Y,log2 fold change of mutant abundance,[1],-0.442
same,NOISeq theta enrichment statistic,[2],-1.46
N126I,log2 fold change of mutant abundance,[1],-0.0173
same,NOISeq theta enrichment statistic,[2],-0.0649
N126R,log2 fold change of mutant abundance,[1],-0.276
same,NOISeq theta enrichment statistic,[2],-0.19
N126T,log2 fold change of mutant abundance,[1],0.0698
same,NOISeq theta enrichment statistic,[2],0.177
N126D,log2 fold change of mutant abundance,[1],0.565
same,NOISeq theta enrichment statistic,[2],1.48
N126V,log2 fold change of mutant abundance,[1],-0.419
same,NOISeq theta enrichment statistic,[2],-0.213
N126G,log2 fold change of mutant abundance,[1],0.401
same,NOISeq theta enrichment statistic,[2],0.204
N126S,log2 fold change of mutant abundance,[1],0.027
same,NOISeq theta enrichment statistic,[2],0.0893
Y130S,log2 fold change of mutant abundance,[1],0.0184
same,NOISeq theta enrichment statistic,[2],0.0238
Y130F,log2 fold change of mutant abundance,[1],0.0555
same,NOISeq theta enrichment statistic,[2],0.224
Y130L,log2 fold change of mutant abundance,[1],0.221
same,NOISeq theta enrichment statistic,[2],0.148
Y130E,log2 fold change of mutant abundance,[1],0.358
same,NOISeq theta enrichment statistic,[2],0.146
Y130C,log2 fold change of mutant abundance,[1],0.0383
same,NOISeq theta enrichment statistic,[2],0.0777
Y130D,log2 fold change of mutant abundance,[1],0.105
same,NOISeq theta enrichment statistic,[2],0.164
Y130K,log2 fold change of mutant abundance,[1],-0.222
same,NOISeq theta enrichment statistic,[2],-0.171
Y130T,log2 fold change of mutant abundance,[1],-0.357
same,NOISeq theta enrichment statistic,[2],-0.228
Y130V,log2 fold change of mutant abundance,[1],-0.0695
same,NOISeq theta enrichment statistic,[2],-0.0499
Y130I,log2 fold change of mutant abundance,[1],-0.0677
same,NOISeq theta enrichment statistic,[2],-0.0646
Y130H,log2 fold change of mutant abundance,[1],-0.153
same,NOISeq theta enrichment statistic,[2],-0.341
Y130N,log2 fold change of mutant abundance,[1],-0.194
same,NOISeq theta enrichment statistic,[2],-0.403
G124D,log2 fold change of mutant abundance,[1],0.737
same,NOISeq theta enrichment statistic,[2],1.8
G124V,log2 fold change of mutant abundance,[1],0.0643
same,NOISeq theta enrichment statistic,[2],0.124
G124T,log2 fold change of mutant abundance,[1],0.135
same,NOISeq theta enrichment statistic,[2],0.0856
G124C,log2 fold change of mutant abundance,[1],0.142
same,NOISeq theta enrichment statistic,[2],0.631
G124E,log2 fold change of mutant abundance,[1],0.131
same,NOISeq theta enrichment statistic,[2],0.0999
G124Y,log2 fold change of mutant abundance,[1],-0.582
same,NOISeq theta enrichment statistic,[2],-0.384
G124S,log2 fold change of mutant abundance,[1],0.212
same,NOISeq theta enrichment statistic,[2],0.613
G124R,log2 fold change of mutant abundance,[1],0.647
same,NOISeq theta enrichment statistic,[2],1.1
G124A,log2 fold change of mutant abundance,[1],0.116
same,NOISeq theta enrichment statistic,[2],0.228
G124F,log2 fold change of mutant abundance,[1],-0.463
same,NOISeq theta enrichment statistic,[2],-0.27
G124N,log2 fold change of mutant abundance,[1],0.445
same,NOISeq theta enrichment statistic,[2],0.3
G124W,log2 fold change of mutant abundance,[1],0.186
same,NOISeq theta enrichment statistic,[2],0.139
T138P,log2 fold change of mutant abundance,[1],-0.341
same,NOISeq theta enrichment statistic,[2],-0.439
T138A,log2 fold change of mutant abundance,[1],0.0321
same,NOISeq theta enrichment statistic,[2],0.106
T138N,log2 fold change of mutant abundance,[1],-0.00173
same,NOISeq theta enrichment statistic,[2],-0.00345
T138H,log2 fold change of mutant abundance,[1],-0.0618
same,NOISeq theta enrichment statistic,[2],-0.0534
T138K,log2 fold change of mutant abundance,[1],-0.358
same,NOISeq theta enrichment statistic,[2],-0.32
T138I,log2 fold change of mutant abundance,[1],-0.175
same,NOISeq theta enrichment statistic,[2],-0.324
T138S,log2 fold change of mutant abundance,[1],0.0454
same,NOISeq theta enrichment statistic,[2],0.24
T138R,log2 fold change of mutant abundance,[1],-0.552
same,NOISeq theta enrichment statistic,[2],-0.335
T138Y,log2 fold change of mutant abundance,[1],-0.193
same,NOISeq theta enrichment statistic,[2],-0.0987

# Six entries drawn at random from those above, as already listed:
variant,measurement,setting,value
G124N,NOISeq theta enrichment statistic,[2],0.3
Q131L,NOISeq theta enrichment statistic,[2],-1.01
I139T,log2 fold change of mutant abundance,[1],0.017
Y130V,NOISeq theta enrichment statistic,[2],-0.0499
S141C,log2 fold change of mutant abundance,[1],-0.00608
I137F,log2 fold change of mutant abundance,[1],-0.121

# A run of entries of the results above, as a working copy:
variant,measurement,setting,value
Q131T,log2 fold change of mutant abundance,[1],-0.869
same,NOISeq theta enrichment statistic,[2],-0.603

# Laid out differently: entries from further up.
variant | measurement | setting | value
N126E | NOISeq theta enrichment statistic | [2] | 0.188
N126Q | log2 fold change of mutant abundance | [1] | -0.0586
same | NOISeq theta enrichment statistic | [2] | -0.0522
N126H | log2 fold change of mutant abundance | [1] | -0.097
same | NOISeq theta enrichment statistic | [2] | -0.185
N126Y | log2 fold change of mutant abundance | [1] | -0.442
